The list shows a part of the results.
Assays:
Experiment in all cases: log2 fold change, soluble protein after heating vs DMSO (PISA); higher = thermal stabilisation; K562 cells, 10 uM, 30 min; active = over 0.2 and 3.5 SD of the protein, either way, in both replicates (recomputed)
[1] = compound: CC1=C(C=C(C=C1)NC(=O)C2=CC(=CC=C2)C(C)(C)C#N)NC3=CC4=C(C=C3)N=CN(C4=O)C
Procedure, shortened: (§1)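 Soluble protein was defined as the supernatant after 21,000xg for 90 min. It came from K562 cells at 2×10^6 cells/mL given 10 μM compound for 30 min, heated in aliquots for 3 min across 48°C-58°C, pooled, and extracted in PBS with 0.5% NP-40 at 4°C, and was quantified by TMTpro 16plex LC-MS/MS with equalised channel sums. Thermal stability against control samples, from duplicates, is reported as log2 fold change.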

Sequences of proteins named here, by UniProt entry; tags and fusion partners are left off. A change or cut given only in a name is not applied to a line headed by its entry.
UniProt Q9Y6I9: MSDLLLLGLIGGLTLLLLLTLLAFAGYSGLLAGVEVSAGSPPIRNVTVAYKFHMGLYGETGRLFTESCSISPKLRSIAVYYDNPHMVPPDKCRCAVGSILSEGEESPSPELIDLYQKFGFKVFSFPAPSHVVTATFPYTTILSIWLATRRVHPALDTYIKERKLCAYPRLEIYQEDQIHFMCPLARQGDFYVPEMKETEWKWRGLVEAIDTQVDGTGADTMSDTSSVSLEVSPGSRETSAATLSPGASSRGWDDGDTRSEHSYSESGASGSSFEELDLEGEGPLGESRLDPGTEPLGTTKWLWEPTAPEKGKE
UniProt P15923: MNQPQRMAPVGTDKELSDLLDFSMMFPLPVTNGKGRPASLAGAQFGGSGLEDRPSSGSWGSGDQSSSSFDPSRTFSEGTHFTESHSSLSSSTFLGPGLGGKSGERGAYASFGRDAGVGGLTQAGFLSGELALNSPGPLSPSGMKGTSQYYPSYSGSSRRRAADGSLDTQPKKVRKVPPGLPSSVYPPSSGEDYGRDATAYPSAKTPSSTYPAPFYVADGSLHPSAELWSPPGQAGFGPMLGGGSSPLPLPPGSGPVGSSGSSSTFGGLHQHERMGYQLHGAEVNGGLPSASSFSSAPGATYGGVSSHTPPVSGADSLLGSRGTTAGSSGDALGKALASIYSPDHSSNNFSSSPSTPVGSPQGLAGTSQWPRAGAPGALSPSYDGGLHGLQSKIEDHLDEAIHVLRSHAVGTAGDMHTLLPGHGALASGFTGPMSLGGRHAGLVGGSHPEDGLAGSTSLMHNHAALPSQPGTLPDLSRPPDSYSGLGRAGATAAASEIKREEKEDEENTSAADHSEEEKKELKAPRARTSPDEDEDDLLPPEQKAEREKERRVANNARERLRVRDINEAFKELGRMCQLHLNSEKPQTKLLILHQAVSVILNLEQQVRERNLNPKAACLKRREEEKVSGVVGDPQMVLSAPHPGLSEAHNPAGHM
UniProt O60907: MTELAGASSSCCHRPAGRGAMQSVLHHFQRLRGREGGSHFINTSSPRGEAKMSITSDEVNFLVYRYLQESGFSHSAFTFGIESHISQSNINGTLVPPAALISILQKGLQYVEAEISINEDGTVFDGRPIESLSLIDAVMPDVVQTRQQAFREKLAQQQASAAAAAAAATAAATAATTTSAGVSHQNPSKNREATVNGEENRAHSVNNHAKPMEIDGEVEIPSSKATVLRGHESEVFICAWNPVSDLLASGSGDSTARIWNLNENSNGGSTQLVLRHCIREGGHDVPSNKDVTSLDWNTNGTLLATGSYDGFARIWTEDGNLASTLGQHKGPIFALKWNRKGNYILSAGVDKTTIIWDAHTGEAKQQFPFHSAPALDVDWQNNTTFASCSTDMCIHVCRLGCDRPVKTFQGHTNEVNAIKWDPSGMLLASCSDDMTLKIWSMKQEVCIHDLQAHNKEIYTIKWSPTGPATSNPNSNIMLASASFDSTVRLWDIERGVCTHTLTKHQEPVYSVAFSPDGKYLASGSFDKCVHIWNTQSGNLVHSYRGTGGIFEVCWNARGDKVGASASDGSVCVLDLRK
UniProt P35443: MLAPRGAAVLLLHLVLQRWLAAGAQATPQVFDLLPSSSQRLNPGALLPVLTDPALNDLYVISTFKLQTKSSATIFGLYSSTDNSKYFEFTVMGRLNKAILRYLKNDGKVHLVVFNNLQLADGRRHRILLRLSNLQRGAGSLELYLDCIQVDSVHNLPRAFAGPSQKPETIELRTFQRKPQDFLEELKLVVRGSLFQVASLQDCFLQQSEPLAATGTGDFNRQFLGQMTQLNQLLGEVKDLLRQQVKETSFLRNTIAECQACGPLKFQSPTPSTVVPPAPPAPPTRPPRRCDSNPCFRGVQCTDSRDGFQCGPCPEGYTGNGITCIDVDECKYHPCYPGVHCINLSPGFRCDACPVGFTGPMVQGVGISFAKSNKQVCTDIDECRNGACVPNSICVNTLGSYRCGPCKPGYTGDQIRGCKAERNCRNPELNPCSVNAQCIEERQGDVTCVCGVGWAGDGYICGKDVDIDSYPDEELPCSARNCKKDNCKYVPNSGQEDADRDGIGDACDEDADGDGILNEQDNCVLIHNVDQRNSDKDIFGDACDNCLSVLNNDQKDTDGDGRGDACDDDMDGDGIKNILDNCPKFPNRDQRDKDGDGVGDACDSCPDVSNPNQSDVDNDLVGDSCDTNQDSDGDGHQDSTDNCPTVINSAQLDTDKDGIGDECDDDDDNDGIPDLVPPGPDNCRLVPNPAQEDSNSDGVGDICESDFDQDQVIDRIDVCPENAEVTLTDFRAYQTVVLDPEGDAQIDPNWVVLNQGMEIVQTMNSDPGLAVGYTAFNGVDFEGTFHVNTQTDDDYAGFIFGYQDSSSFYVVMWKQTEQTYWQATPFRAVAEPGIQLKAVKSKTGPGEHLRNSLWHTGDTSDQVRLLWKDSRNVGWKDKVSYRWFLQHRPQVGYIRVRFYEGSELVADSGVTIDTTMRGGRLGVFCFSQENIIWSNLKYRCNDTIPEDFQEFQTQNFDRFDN
UniProt Q01085: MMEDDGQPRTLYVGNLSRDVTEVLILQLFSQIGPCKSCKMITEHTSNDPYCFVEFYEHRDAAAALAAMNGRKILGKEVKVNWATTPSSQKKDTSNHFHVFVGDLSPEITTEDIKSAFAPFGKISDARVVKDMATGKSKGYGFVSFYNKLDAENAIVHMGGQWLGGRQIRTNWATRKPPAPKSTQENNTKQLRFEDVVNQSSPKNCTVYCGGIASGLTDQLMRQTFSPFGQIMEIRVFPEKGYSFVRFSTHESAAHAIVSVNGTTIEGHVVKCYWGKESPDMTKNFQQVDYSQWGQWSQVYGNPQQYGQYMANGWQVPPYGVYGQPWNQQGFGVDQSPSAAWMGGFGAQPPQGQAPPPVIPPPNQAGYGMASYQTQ
UniProt O43615: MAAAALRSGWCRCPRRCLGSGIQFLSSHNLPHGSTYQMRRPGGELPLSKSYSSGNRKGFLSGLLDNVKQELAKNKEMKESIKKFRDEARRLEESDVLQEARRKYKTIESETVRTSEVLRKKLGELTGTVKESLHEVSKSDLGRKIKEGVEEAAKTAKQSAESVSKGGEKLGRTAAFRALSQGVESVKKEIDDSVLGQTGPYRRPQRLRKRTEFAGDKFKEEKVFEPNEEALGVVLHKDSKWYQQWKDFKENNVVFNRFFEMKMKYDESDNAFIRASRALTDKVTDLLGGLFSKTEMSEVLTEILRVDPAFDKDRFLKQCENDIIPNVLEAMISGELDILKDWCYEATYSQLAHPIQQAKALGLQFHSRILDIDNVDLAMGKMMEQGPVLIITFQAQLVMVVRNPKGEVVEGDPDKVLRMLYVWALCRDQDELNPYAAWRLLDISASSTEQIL
UniProt Q14186: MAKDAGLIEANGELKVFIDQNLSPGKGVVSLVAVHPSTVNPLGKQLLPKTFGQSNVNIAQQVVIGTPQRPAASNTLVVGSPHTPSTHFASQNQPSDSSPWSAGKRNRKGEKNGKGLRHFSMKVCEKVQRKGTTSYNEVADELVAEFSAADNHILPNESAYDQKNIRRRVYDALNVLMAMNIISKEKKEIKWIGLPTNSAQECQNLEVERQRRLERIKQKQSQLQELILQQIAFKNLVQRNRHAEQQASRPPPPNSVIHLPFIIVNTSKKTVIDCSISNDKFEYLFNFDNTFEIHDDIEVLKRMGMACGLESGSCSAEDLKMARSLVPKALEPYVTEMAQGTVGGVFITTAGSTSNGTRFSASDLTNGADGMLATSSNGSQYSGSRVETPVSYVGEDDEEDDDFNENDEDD
UniProt Q9Y2W1: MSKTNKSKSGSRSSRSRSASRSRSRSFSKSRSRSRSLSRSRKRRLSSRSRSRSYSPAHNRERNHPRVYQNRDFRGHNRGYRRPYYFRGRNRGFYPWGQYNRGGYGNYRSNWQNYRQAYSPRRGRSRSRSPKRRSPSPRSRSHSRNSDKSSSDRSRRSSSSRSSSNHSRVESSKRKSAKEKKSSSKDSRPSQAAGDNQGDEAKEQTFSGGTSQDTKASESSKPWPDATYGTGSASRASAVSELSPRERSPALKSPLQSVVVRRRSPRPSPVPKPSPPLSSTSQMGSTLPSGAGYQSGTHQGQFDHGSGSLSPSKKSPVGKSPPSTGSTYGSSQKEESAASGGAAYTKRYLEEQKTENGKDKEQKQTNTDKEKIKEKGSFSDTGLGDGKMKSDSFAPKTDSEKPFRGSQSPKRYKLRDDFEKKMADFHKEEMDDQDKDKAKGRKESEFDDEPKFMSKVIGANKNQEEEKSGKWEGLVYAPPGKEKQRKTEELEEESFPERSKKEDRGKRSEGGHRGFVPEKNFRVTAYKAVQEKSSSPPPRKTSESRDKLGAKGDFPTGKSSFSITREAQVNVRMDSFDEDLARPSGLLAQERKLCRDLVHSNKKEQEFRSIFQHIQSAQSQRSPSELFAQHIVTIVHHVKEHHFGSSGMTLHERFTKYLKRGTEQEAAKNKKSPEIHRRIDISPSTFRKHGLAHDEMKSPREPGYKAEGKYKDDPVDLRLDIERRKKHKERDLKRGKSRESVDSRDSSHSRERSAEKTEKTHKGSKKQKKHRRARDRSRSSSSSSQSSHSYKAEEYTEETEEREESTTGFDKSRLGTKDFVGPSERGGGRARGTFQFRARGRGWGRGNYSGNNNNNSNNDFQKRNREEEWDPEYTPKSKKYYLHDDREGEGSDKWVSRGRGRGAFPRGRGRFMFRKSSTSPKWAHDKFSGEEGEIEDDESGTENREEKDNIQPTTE
UniProt Q9Y5J9: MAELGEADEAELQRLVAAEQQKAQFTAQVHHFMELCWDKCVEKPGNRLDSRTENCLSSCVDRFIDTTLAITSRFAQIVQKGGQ
UniProt Q8NI27: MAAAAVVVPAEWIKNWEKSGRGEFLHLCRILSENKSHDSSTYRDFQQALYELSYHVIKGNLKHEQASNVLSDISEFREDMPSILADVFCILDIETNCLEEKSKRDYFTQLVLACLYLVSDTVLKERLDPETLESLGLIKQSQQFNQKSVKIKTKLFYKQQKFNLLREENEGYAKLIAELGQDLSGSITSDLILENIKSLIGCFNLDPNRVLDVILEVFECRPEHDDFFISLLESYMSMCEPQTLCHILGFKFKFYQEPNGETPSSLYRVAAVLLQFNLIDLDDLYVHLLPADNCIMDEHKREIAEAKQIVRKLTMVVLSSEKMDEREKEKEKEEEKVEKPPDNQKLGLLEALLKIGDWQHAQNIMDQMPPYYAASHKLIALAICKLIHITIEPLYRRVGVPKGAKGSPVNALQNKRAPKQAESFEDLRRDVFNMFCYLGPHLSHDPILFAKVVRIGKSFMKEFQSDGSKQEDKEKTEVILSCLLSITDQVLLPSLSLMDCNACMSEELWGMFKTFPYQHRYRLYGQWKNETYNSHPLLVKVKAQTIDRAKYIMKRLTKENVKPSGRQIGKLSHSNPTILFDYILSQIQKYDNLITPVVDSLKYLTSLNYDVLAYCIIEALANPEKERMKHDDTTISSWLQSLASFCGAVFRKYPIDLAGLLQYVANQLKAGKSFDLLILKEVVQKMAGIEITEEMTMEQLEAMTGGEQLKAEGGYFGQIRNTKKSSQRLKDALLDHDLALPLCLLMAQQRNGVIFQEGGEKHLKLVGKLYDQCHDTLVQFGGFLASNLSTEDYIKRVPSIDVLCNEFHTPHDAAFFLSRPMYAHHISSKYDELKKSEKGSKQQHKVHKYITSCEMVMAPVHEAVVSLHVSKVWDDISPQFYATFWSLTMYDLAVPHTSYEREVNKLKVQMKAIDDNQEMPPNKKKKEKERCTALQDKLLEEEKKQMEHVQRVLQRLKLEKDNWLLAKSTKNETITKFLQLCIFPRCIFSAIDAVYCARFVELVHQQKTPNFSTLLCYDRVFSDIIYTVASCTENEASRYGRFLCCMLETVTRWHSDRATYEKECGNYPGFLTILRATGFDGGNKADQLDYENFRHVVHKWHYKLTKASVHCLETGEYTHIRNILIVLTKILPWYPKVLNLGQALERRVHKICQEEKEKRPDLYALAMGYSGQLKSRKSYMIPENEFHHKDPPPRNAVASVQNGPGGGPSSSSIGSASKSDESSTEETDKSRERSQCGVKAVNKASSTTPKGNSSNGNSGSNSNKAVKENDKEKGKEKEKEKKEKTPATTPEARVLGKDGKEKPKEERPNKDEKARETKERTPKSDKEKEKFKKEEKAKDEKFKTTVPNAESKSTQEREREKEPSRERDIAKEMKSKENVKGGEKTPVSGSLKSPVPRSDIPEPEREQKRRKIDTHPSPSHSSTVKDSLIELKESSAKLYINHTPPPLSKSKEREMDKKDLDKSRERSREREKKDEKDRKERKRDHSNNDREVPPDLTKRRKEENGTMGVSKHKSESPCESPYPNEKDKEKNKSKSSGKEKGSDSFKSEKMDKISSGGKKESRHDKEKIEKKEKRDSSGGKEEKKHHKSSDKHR

[2] = compound: CC1=C(C=C(C=C1)NC(=O)C2=CC(=CC=C2)N(C)C)NC(=O)C3=CC=C(C=C3)O
Procedure, shortened: as §1

[3] = compound: CC1=CC=C(C=C1)SC2=C3C=C(SC3=CN=C2)C(=O)N
Procedure, shortened: as §1

[4] = compound: CC1=NC(=CC=C1)C2=C(N=C(N2)C(C)(C)C)C3=CC4=NC=CN=C4C=C3
Procedure, shortened: as §1

[5] = compound: CCCCN(Cc1ccc(C(=O)NO)cc1)C(=O)Nc1ccccc1 [Nexturastat A]
Procedure, shortened: as §1

[6] = compound: CCCS(=O)(=O)Nc1ccc(F)c(C(=O)c2c[nH]c3ncc(-c4ccc(Cl)cc4)cc23)c1F [vemurafenib]
Procedure, shortened: as §1

[7] = compound: CCCS(=O)(=O)Nc1ccc(F)c(C(=O)c2c[nH]c3ncc(Cl)cc23)c1F
Procedure, shortened: as §1

[8] = compound: CCCc1cc(C)[nH]c(=O)c1CNC(=O)c1cc(-c2ccnc(N3CCN(C)CC3)c2)cc2c1cnn2C(C)C
Procedure, shortened: as §1

[9] = compound: CCN(CC)Cc1ccc2cc(COC(=O)Nc3ccc(C(=O)NO)cc3)ccc2c1 [givinostat]
Procedure, shortened: as §1

[10] = compound: CCN(CCCOc1ccc2c(Nc3cc(CC(=O)Nc4cccc(F)c4)[nH]n3)ncnc2c1)CCOP(=O)(O)O [barasertib]
Procedure, shortened: as §1

[11] = compound: CC[C@@H]1C(=O)N(C)c2cnc(Nc3ccc(C(=O)NC4CCN(C)CC4)cc3OC)nc2N1C1CCCC1
Procedure, shortened: as §1

[12] = compound: CC[C@@H]1C(=O)N(C)c2cnc(Nc3ccc(C(=O)N[C@H]4CC[C@H](N5CCN(CC6CC6)CC5)CC4)cc3OC)nc2N1C(C)C [volasertib]
Procedure, shortened: as §1

[13] = compound: CC[C@H](C)N1C=C(C2=C(C=C(C=C21)C3=CN=C(C=C3)N4CCNCC4)C(=O)NCC5=C(C=C(NC5=O)C)C)C
Procedure, shortened: as §1

[14] = compound: CC[C@H](C)[C@@H](C(=O)N[C@@H]([C@@H](C)O)C(=O)N[C@@H](CC(C)C)C(=O)[C@]1(CO1)C)NC(=O)[C@H]([C@@H](C)CC)N(C)C(=O)C [epoxomicin]
Procedure, shortened: as §1

[15] = compound: CCn1cc(-c2ccnc3[nH]c(-c4cccc(CN(C)C)c4)cc23)c(-c2ccc(NC(=O)N(C)C)cc2)n1
Procedure, shortened: as §1

[16] = compound: CN(C)CC(=O)Nc1ccc2[nH]c(=O)c3ccccc3c2c1
Procedure, shortened: as §1

[17] = compound: CN1C2=C(C3=C1C(=O)N(N=C3)CC4=CC(=CC=C4)N)SC(=C2)S(=O)C
Procedure, shortened: as §1

[18] = compound: CN1CCC(CNc2ccc3ncc(-c4cccc(OC(F)(F)F)c4)n3n2)CC1
Procedure, shortened: as §1

[19] = compound: CCn1c(C(=O)N(C2CC2)C2CC2)cc2c3c(ncn3C)c(Nc3cc(C)n(C)n3)nc21
Procedure, shortened: as §1

[20] = compound: CN(CCOC1=CC=C(C=C1)C[C@H]2C(=O)NC(=O)S2)C3=CC=CC=N3 (racemic) [rosiglitazone]
Procedure, shortened: as §1

Measured: log2 fold change

TEX264 (UniProt Q9Y6I9)
inactive: [1] 0.053 | [2] -0.016 | [3] -0.008 | [4] 0.013 | [5] 0.023 | [6] -0.002 | [7] -0.049 | [8] 0.014 | [9] 0.317 | [10] 0.032 | [11] 0.016 | [12] 0.356 | [13] -0.073 | [14] 0 | [15] 0.499 | [16] 0.098 | [17] 0.182 | [18] 0.262

TCF3 (UniProt P15923)
inactive: [1] 0.03 | [2] 0.041 | [3] -0.049 | [4] -0.014 | [5] 0.024 | [6] -0.013 | [7] 0.036 | [8] -0.051 | [9] 0.002 | [10] 0.019 | [11] -0.014 | [12] -0.052 | [13] -0.012 | [14] 0.08 | [19] 0.008 | [15] 0.046 | [16] 0.036 | [20] 0.027 | [17] 0.016 | [18] -0.044

TBL1X (UniProt O60907)
inactive: [1] -0.028 | [2] 0.006 | [3] 0.032 | [4] -0.008 | [5] -0.128 | [6] -0.026 | [7] 0.003 | [8] -0.038 | [9] -0.096 | [10] -0.014 | [11] 0.041 | [12] -0.023 | [13] -0.029 | [14] 0.038 | [19] 0.004 | [15] -0.122 | [16] 0 | [20] 0.021 | [17] -0.054 | [18] -0.047

TBC1D15 isoform 3 (UniProt Q8TC07)
active: [12] -0.485 | [18] -0.241
inactive: [1] 0.076 | [2] -0.028 | [3] -0.003 | [4] -0.019 | [5] 0.002 | [6] 0.049 | [7] 0.12 | [8] -0.015 | [9] 0.046 | [10] 0.068 | [11] -0.221 | [13] 0.04 | [14] 0.004 | [15] -0.024 | [16] 0.031 | [17] 0.018

TFB1M (UniProt Q8WVM0)
inactive: [1] -0.034 | [2] -0.011 | [3] -0.065 | [4] -0.1 | [5] 0.196 | [6] -0.03 | [7] -0.043 | [8] 0.116 | [9] 0.055 | [10] -0.034 | [11] 0.15 | [12] 0.144 | [13] 0.032 | [14] -0.139 | [19] 0.02 | [15] 0.07 | [16] -0.033 | [20] 0.049 | [17] 0.096 | [18] 0.277

THBS4 (UniProt P35443)
inactive: [1] -0.081 | [2] 0.13 | [3] 0.085 | [4] 0.152 | [5] 0 | [6] 0.144 | [7] -0.116 | [8] -0.35 | [9] -0.067 | [10] -0.023 | [11] -0.057 | [12] -0.02 | [13] -0.069 | [14] -0.393 | [19] -0.073 | [15] 0.125 | [16] -0.116 | [20] 0.14 | [17] 0.31 | [18] -0.185

TET1 (UniProt Q8NFU7)
inactive: [1] -0.096 | [2] -0.164 | [3] 0.112 | [4] -0.156 | [5] 0.39 | [6] 0.021 | [7] -0.019 | [8] -0.505 | [9] 0.464 | [10] -0.007 | [11] 0.024 | [12] -0.437 | [13] -0.489 | [14] -0.069 | [19] -0.195 | [15] -0.031 | [16] 0.019 | [20] 0.071 | [17] -0.112 | [18] 0.171

THOC5 (UniProt Q13769)
inactive: [1] -0.045 | [2] -0.011 | [3] 0 | [4] -0.026 | [5] 0.046 | [6] -0.011 | [7] -0.029 | [8] -0.022 | [9] -0.012 | [10] 0.004 | [11] -0.009 | [12] -0.061 | [13] 0.043 | [14] -0.003 | [19] 0.011 | [15] -0.005 | [16] 0.006 | [20] 0.014 | [17] -0.015 | [18] 0.008

TIAL1 isoform 2 (UniProt Q01085)
inactive: [1] -0.009 | [2] 0.015 | [3] -0.019 | [4] 0.08 | [5] 0.005 | [6] 0.023 | [7] 0.002 | [8] -0.007 | [9] -0.022 | [10] -0.021 | [11] 0.042 | [12] -0.042 | [13] 0.006 | [14] 0.001 | [15] 0.026 | [16] -0.056 | [17] -0.063 | [18] -0.03

TIMM44 (UniProt O43615)
inactive: [1] 0.048 | [2] -0.028 | [3] 0.091 | [4] 0.074 | [5] -0.052 | [6] -0.002 | [7] 0.12 | [8] -0.096 | [9] -0.013 | [10] 0.055 | [13] -0.004 | [14] 0.057 | [15] -0.091 | [16] 0.012 | [17] -0.056
active: [11] -0.412 | [12] -0.57 | [18] -0.886

TFDP1 (UniProt Q14186)
inactive: [1] 0.045 | [2] 0.056 | [3] 0.106 | [4] 0.015 | [5] 0.114 | [6] 0.029 | [7] 0.023 | [8] -0.128 | [9] 0.009 | [10] 0.021 | [11] -0.003 | [12] -0.117 | [13] 0.011 | [14] 0.081 | [19] 0.137 | [15] -0.041 | [16] 0.069 | [20] 0.026 | [18] 0.01

2 entries picked at random from those above:
TFDP1 (UniProt Q14186)
inactive: [1] 0.045 | [2] 0.056 | [3] 0.106 | [4] 0.015 | [5] 0.114 | [6] 0.029 | [7] 0.023 | [8] -0.128 | [9] 0.009 | [10] 0.021 | [11] -0.003 | [12] -0.117 | [13] 0.011 | [14] 0.081 | [19] 0.137 | [15] -0.041 | [16] 0.069 | [20] 0.026 | [18] 0.01

TET1 (UniProt Q8NFU7)
inactive: [1] -0.096 | [2] -0.164 | [3] 0.112 | [4] -0.156 | [5] 0.39 | [6] 0.021 | [7] -0.019 | [8] -0.505 | [9] 0.464 | [10] -0.007 | [11] 0.024 | [12] -0.437 | [13] -0.489 | [14] -0.069 | [19] -0.195 | [15] -0.031 | [16] 0.019 | [20] 0.071 | [17] -0.112 | [18] 0.171

Remaining list, next part.

THRAP3 (UniProt Q9Y2W1)
inactive: [1] -0.008 | [2] 0.004 | [3] -0.056 | [4] -0.035 | [5] 0.109 | [6] 0.063 | [7] -0.01 | [8] 0.197 | [9] 0.093 | [10] -0.099 | [11] 0.03 | [12] 0.098 | [13] -0.137 | [14] -0.093 | [15] 0.101 | [16] -0.026 | [17] 0.025 | [18] -0.058

TERF2IP (UniProt Q9NYB0)
inactive: [1] -0.023 | [2] -0.012 | [3] 0.02 | [4] 0.013 | [5] 0.057 | [6] 0.184 | [7] 0.001 | [8] -0.017 | [9] -0.009 | [10] 0.021 | [11] -0.038 | [12] -0.205 | [13] 0.001 | [14] 0.081 | [15] 0.01 | [16] 0.045 | [17] 0.026 | [18] -0.039

TIMM8B (UniProt Q9Y5J9)
inactive: [1] 0.106 | [2] -0.095 | [3] -0.122 | [4] 0.319 | [5] 0.131 | [6] -0.153 | [7] 0.066 | [8] 0.037 | [9] 0.184 | [10] 0.062 | [11] 0.004 | [12] -0.182 | [13] -0.068 | [14] 0.527 | [19] 0.073 | [15] -0.115 | [16] 0.035 | [20] -0.024 | [17] -0.178 | [18] 0.167

THUMPD1 (UniProt Q9NXG2)
inactive: [1] 0.006 | [2] 0 | [3] 0.008 | [4] 0 | [5] -0.023 | [6] 0.004 | [7] 0 | [8] -0.038 | [9] -0.014 | [10] 0.014 | [11] -0.043 | [12] -0.055 | [13] -0.001 | [14] 0.014 | [19] 0.019 | [15] -0.001 | [16] 0.017 | [20] 0.022 | [17] -0.037 | [18] -0.034

TBC1D5 isoform 2 (UniProt Q92609)
active: [11] -0.397 | [12] -0.854 | [18] -0.375
inactive: [1] -0.051 | [2] -0.048 | [3] -0.013 | [4] 0.018 | [5] 0.01 | [6] 0.048 | [7] 0.112 | [8] -0.033 | [9] 0.049 | [10] 0.022 | [13] 0.113 | [14] 0.069 | [15] -0.016 | [16] 0.039 | [17] 0.021

THOC2 (UniProt Q8NI27)
inactive: [1] 0.01 | [2] -0.012 | [3] -0.031 | [4] -0.049 | [5] 0.097 | [6] -0.01 | [7] -0.031 | [8] 0.042 | [9] 0.035 | [10] 0 | [11] 0.021 | [12] 0.015 | [13] 0.025 | [14] -0.033 | [19] -0.039 | [15] 0.06 | [16] 0.009 | [20] 0.005 | [17] 0.089 | [18] -0.012
